Assay results published in patent US5164391A, “Hydantoin derivatives for treating complications of diabetes and circulatory diseases” (priority 1989, dated 1992).
Where two headings read alike, the source gives them in different places.

Test system: thoracic aorta
Assay: Action to the aorta of guinea pig (relaxation of contracted spiral samples)
Parameters: species or system Hartley guinea pigs
Conditions: Cavia porcellus
Description: Hartley guinea pigs (body weight of 300-500 g) were rendered unconscious fainted by knocking their head and fixed upwardly. A thoracic aorta was taken out to prepare spiral samples, each having size of about 2×25 mm. The sample was suspended in a Magnus tube under a load of about 1 g and upper end of the sample was connected through a silk thread to a FD pick-up to record a change in isometric tension.
Composition of Krebs-Henseleit solution:
Prior to the experiment, the sample in the Magnus tube was left to stand, as it was, for 60 to 90 minutes and in such period of time, the Krebs-Henseleit solution was exchanged to fresh one at an interval of 20 to 30 minutes.
When the contraction of the sample became constant, the compound to be tested was gradually added in a amount starting at a concentration of 10^-8, to […] to observe the contraction of the sample. Finally, papaverine was added therein, so as to make its final concentration of 2×10^-5 g/ml, to check and record also the relaxing reaction or atony caused by the papaverine.

## C(=C\c1ccccc1)/CN1CCN(C(c2ccccc2)c2ccccc2)CC1 [Cinnarizine, reference compound]
read-out: IC50 KCl contraction (50% relaxing)
  IC50: 200 µM
read-out: IC50 N.E. contraction (50% relaxing)
  IC50: 100 µM
